Data taken from patent US20250170176A1, “METHODS OF TREATMENT WITH CAR CELLS IN COMBINATION WITH S1P RECEPTOR MODULATORS” (PRIOTHERA SAS, priority 2022, published 2025).
Like-named read-outs stand apart in the source and are kept apart here. For at least one compound, name, drawing or mass did not settle the structure. Some results were stated once for a whole list of compounds, not compound by compound.

Experiments:
[1] = test system: human cytokines (IFN-γ, TNF-α, IL-2, IL-4, IL-6, IL-10 and IL-17A); assay: Plasma human cytokines by cytometric bead array in JEKO-1 bearing NCG mice given CAR-T cells (Example 2); format: in vivo, mouse (NCG); conditions: D12, 5 days after CAR-T cells; for level of IFN-γ in blood (plasma): 3 mg/kg IP from D6 (Mocravimod every 2 days, Fingolimod daily) with 0.75×10^6 CAR-T cells; for level of IFN-γ compared to the CAR-T—Vehicle treated group: 3 mg/kg IP from D6 with CAR-T cells
[2] = test system: absolute lymphocyte counts; conditions: healthy volunteers, cited from earlier work
[3] = test system: CAR-T cells; assay: Absolute numbers of CAR-T cells in blood (Example 3); format: in vivo, mouse (NCG); conditions: day 5; mocravimod started day −1 prior to CAR-T cell injection
Method: To determine the kinetics of cytokine secretion and to evaluate the effectiveness of mocravimod in reducing the level of circulating cytokines when administered in combination with CAR T cells, NOD CRISPR Prkdc 112r Gamma (NCG) mice were injected i.v. with 5×10^6 JEKO-1-luc-GFP tumor cells. Treatment with either mocravimod or vehicle started on day 6 after tumor cell engraftment. Mocravimod (3 mg/kg) was administered every second day. 0.75×10^6 CAR T cells were injected i.v. on day 7 after tumor cell engraftment. Mice were bled 24 h, 48 h, 72 h, 96 h and 120 h post CAR T cell injection and plasma was collected. Interferon-g (IFN-g), Tumor necrosis factor-a (TNF-α) and Interleukin-2 (IL-2) were analyzed in plasma samples using the BD CBA Human Th1/Th2/Th17 cytokine assay. CAR T cells were phenotyped and enumerated in blood.
The same protocol as example 1 has been conducted for the method of analyzing CAR-T cells in bone marrow and the same protocol as the cytokine assay has been conducted for the method of analyzing CAR-T cells in blood.

[4] = test system: JEKO-1 (Mantle cell lymphoma); assay: Cellular cytotoxicity, Annexin V and DAPI staining (Example 4); format: cell-based; conditions: 7.5 μM, 2 and 24 hours
[5] = test system: Nalm6-GFP+ tumor cells; assay: Tumor cells in bone marrow of Scid-beige mice given CAR T cells with or without mocravimod (Example 5); format: in vivo, mouse (Scid-beige); conditions: 3 mg/kg every second day from 3 days prior to CAR T cells, in combination with CAR T cells; day 18; versus CAR T cells alone
[6] = test system: Jurkat (ALL); assay: Cellular cytotoxicity, Annexin V and DAPI staining (Example 4); format: cell-based; conditions: 7.5 μM, 2 and 24 hours
[7] = test system: CAR-T cells; assay: Percentage of CAR-T cells in bone marrow (Example 3); format: in vivo, mouse; conditions: day 4 after CAR-T injection
[8] = test system: THP-1 (AML); assay: Cellular cytotoxicity, Annexin V and DAPI staining (Example 4); format: cell-based; conditions: 7.5 μM, 2 and 24 hours
[9] = test system: absolute lymphocyte counts; assay: Recovery of peripheral lymphocyte counts after S1P modulator dosing in healthy volunteers; format: in vivo, human
[10] = test system: MOLM-13 (AML); assay: Cellular cytotoxicity, Annexin V and DAPI staining (Example 4); format: cell-based; conditions: 7.5 μM, 2 and 24 hours
[11] = test system: CAR-T cells; assay: CAR-T cell activation markers by flow cytometry in leukemia mice (Example 1); format: in vivo, mouse (C57BL/6J)
Text: 6 to 8-week-old C57BL/6J male mice were obtained from Envigo. Ubi-GFP RAG1−/−OT-I TCR mice were bred and crossed in our animal facility under specific pathogen-free conditions. All experiments were approved by Institut Pasteur's Safety Committee in accordance with French and European guidelines (CETEA 2017-0038). Immortalized pro-B cells were generated by infecting bone marrow cells with a retrovirus encoding viral-Abelson kinase (v-abl). This tumor cell line was then retrovirally transduced to express a fluorescence resonance energy transfer (FRET)-based reporter for caspase 3 activity. Mice were examined every day and sacrificed in case of prostration, tousled hair, weakness or nodal tumor mass >1 cm. Cells were cultured in RPMI medium 1640-GlutaMAX™ supplemented with 10% heat-inactivated fetal bovine serum, 50 U·mL-1 penicillin, 50 μg·mL-1 streptomycin, 1 mM sodium pyruvate, 10 mM HEPES and 50 μM 2-mercaptoethanol, and maintained at 37° C. and 5% CO2. Cells were routinely tested for the absence of Mycoplasma contamination (Venor-GeM Advance mycoplasma detection kit, Minerva Biolabs). […]
For ex vivo analysis, bone marrow cells were isolated by flushing femurs and tibias from tumor-bearing mice and subsequent filtering through 70 μm cell strainers. […] Analyses were performed using a Cytoflex LX (Beckman Coulter) flow cytometer and analyzed with FlowJo v10.8.0 (BD). […]

[12] = test system: Raji (B cell lymphoma); assay: Cellular cytotoxicity, Annexin V and DAPI staining (Example 4); format: cell-based; conditions: 7.5 μM, 2 and 24 hours
[13] = test system: Kasumi-1 (AML); assay: as above; format: cell-based; conditions: 7.5 μM, 2 and 24 hours
[14] = test system: transformed pro-B cells (leukemia tumor cells); assay: Tumor burden in lymph nodes of leukemia mice given anti-CD19 CAR-T cells with or without KRP203 (Example 1); format: in vivo, mouse (C57BL/6J); conditions: for absolute tumor numbers in lymph nodes: versus CAR8+PBS and untreated
[15] = test system: MV-4-11 (AML); assay: Cellular cytotoxicity, Annexin V and DAPI staining (Example 4); format: cell-based; conditions: 7.5 μM, 2 and 24 hours

CCCCCCCCc1ccc(CCC(N)(CO)CO)cc1 [Fingolimod, reference compound]
level of IFN-γ in blood (plasma) [1]: below 10 μg/mL | level of IFN-γ compared to the CAR-T—Vehicle treated group [1]: significantly lower | Recovery of absolute lymphocyte counts to 80% of normal counts reached after ([2]; single 1 mg dose): 8 days

NC(CO)(CO)CCc1ccc(Sc2cccc(OCc3ccccc3)c2)cc1Cl [mocravimod, 2-amino-2-[4-(3-benzyloxyphenylthio)-2-chlorophenyl]ethyl-propane-1,3-diol]
absolute numbers of CAR-T cells in blood in comparison to the control (vehicle) [3]: significantly decrease | percentage of dead cells compared to the control untreated arm [4]: higher | Nalm6-GFP+ tumor cells in BM [5]: even more reduced | percentage of dead cells compared to the control untreated arm [6]: higher | level of IFN-γ in blood (plasma) [1]: below 10 μg/mL | level of IFN-γ compared to the CAR-T—Vehicle treated group [1]: significantly lower | percentage of CAR-T cells in bone marrow in comparison to the control (CAR-T+PBS) [7]: increased significantly | percentage of dead cells compared to the control untreated arm [8]: higher | lymphocyte recovery time compared with BAF312 and FTY720 [9]: significantly longer | percentage of dead cells compared to the control untreated arm [10]: higher | proportion of CAR-T cells expressing the activation markers (CD69, GrB, PD-1) ([11]; CAR-T cells combined with KRP203 treatment): higher proportion | activation of CAR-T cells in comparison to the control ([11]; KRP203 administered day +2): trend of increased activation | percentage of dead cells compared to the control untreated arm [12]: higher | percentage of dead cells compared to the control untreated arm [13]: higher | absolute tumor numbers in lymph nodes ([14]; KRP203 3 mg/kg i.p. every second day from day −1, with CAR-T cells): further decreases significantly | absolute tumor numbers in lymph nodes ([14]; KRP203 3 mg/kg i.p. from d+2, with CAR-T cells): further decreases significantly | absolute tumor numbers in lymph nodes, regimen comparison ([14]; KRP203 on day −1, day 1 and day 3 relative to KRP203 on day 2 only, with CAR-T cells): further reduced | Recovery of absolute lymphocyte counts to 80% of normal counts reached after ([2]; single 3 mg dose): more than 10 days | percentage of dead cells compared to the control untreated arm [15]: higher
